# The whole screen tested about 130,000 compounds, of which about 1,000 (0.77%) were called active. This list was built around the results that the source calls inconclusive (neither active nor inactive); the mix of calls is not that of the screen.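 How the source made its calls: active means activation at 2 µM above a set limit, confirmed on inspection of the cell images; inconclusive means above the set limit but not confirmed on image inspection; inactive means the rest.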
# Assay: activators of insulin promoter-driven GFP, primary screen, imaging, TRM-6 cells, eGFP reporter, cell count (AID 1296);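 further: share of cells whose green reporter signal exceeds an intensity cutoff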
# Conditions: at 2 µM, stronger effect = higher value, plate-scaled: unstimulated 0, stimulated control 100
# Summary of the method: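 Test system: human fetal islet-derived TRM-6 cells with tamoxifen-inducible insulin promoter–eGFP reporter; schedule: overnight tamoxifen, then two-day compound incubation at 37 °C; measured by: high-content imaging of fixed cells with Hoechst nuclear stain; evaluation: percent cells above green-intensity threshold, converted to percent activation versus plate controls; control set: stimulated and unstimulated wells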
row,SMILES,activation
1,COc1ccc(/C=N\NC(=O)c2cccc(Br)c2)c(OC)c1,inactive: -7.14%
2,Cc1cc(=O)oc(C)c1C(=O)NCC1CCCO1 (stereo unspecified),inconclusive: 431%
3,CC(C)Cc1nc(N2CCN(C(=O)c3ccco3)CC2)c(C#N)c2c1CCC2,inactive: -8.33%
4,COc1ccc(C(=O)n2nnc3ccccc32)cc1OC,inconclusive: 306%
5,O=C(COc1cc(Cl)c(Cl)cc1Cl)NC(=O)Nc1ccc2c(c1)OCCO2,inactive: -3.7%
6,COCCNC(=O)CN(C(=O)Cn1nnc2ccccc21)c1ccc(F)c(Cl)c1,inactive: -8.64%
7,Cc1ccc(S(=O)(=O)NCCNC(=O)C2CCCNC2=O)cc1 (stereo unspecified),inactive: -8.11%
8,Cc1ccc(C(=O)Cn2c(-c3ccccc3)noc2=O)cc1,inactive: -7.14%
9,O=C(O)Cn1cc2c(n1)CCCC2,inconclusive: 450%
10,O=C(NCC1CCCO1)c1cccc(Br)c1 (stereo unspecified),inconclusive: 480%
11,Cc1sc(NC(=O)c2ccc(Br)s2)c(C(N)=O)c1C,inconclusive: 429%
12,COc1ccc(C(=O)CN2C(=O)NC(C)(c3ccc(C)cc3)C2=O)cc1OC (stereo unspecified),inconclusive: 100%
13,Cc1cc(N2C(=O)CC(N3CCN(c4ccc(C(=O)c5cccs5)cc4)CC3)C2=O)no1 (stereo unspecified),active: 438%
14,COc1ccc(/C=N\NC(=O)c2c(C)nc3ccc(Br)cn23)cc1,inconclusive: 346% [cytotoxic]
15,COCCCN(C(=S)Nc1cccc(Cl)c1)C(C)c1ccncc1 (stereo unspecified),inactive: 5.41%
16,C/C(CC(=O)Nc1ccc(OCc2ccccc2)cc1)=N\NC(=O)C(=O)Nc1ccccc1C,inconclusive: 153%
17,CC(=O)c1cc2c(O)c(O)ccc2o1,inconclusive: 188%
18,Cc1cc(C)cc(NC(=O)COC(=O)c2cc(C)oc2C)c1,inconclusive: 158%
19,COc1ccc(C(C)=O)cc1CSCCC#N,inconclusive: 454%
20,COc1cccc(C2Nc3ccccc3C(=O)N2O)c1O (stereo unspecified),inactive: 7.14%
21,CCCCSc1nc2c(c(C(F)(F)F)c1C#N)CCC2,inconclusive: 438%

row,SMILES,activation
1,CC(C)CCC(C)NC(=O)c1ccc2nccnc2c1 (stereo unspecified),inactive: 6.67%
2,Cc1cc2n(n1)C(c1cccs1)Nc1ccccc1-2 (stereo unspecified),inconclusive: 543%
3,Cc1sc(NC(=O)/C=C/c2ccco2)c(C(=O)OC(C)C)c1C,inactive: 8.82%
4,COc1ccccc1NS(=O)(=O)c1ccc(N/N=C/c2c(C)nn(-c3ccccc3)c2N2CCCC2)c([N+](=O)[O-])c1,inactive: -3.9%
5,CC1CCN(S(=O)(=O)c2ccc(NC(=O)CN3CCOCC3)cc2)CC1,inconclusive: 90.6%
6,Cc1cc(C)nc(SCC(=O)N/N=C/c2cccn2-c2ccc(O)cc2)n1,active: 106%
7,CC1CCCCC1NC(=O)CCn1c(=O)oc2ccccc21 (stereo unspecified),inconclusive: 507%
8,CCOC(=O)/C(C#N)=C\C=C1C=CN(C)C=C1,active: 110%
9,COC(=O)Nc1nnc(-c2ccncc2)s1,inconclusive: 433%
10,CCN1CCN(C(=O)Nc2ccccc2OC)CC1,inactive: 6.67%
11,COC(=O)CSc1snnc1-c1ccc(Cl)cc1Cl,inconclusive: 471%
12,CCC(C)NS(=O)(=O)c1ccc(F)c(C(=O)Nc2c(F)cc(F)cc2Br)c1 (stereo unspecified),inactive: 143%
13,Cc1cc(C(=O)CSc2nnnn2C)c(C)n1CCc1ccc(F)cc1,active: 126%
14,OC1CCCN(c2c3c(nc4cc(-c5cccc(Cl)c5)nn24)CCC3)C1 (stereo unspecified),inconclusive: 492%
15,O=C(NCc1n[nH]c(=S)n1-c1ccc(F)cc1)c1ccco1,inconclusive: 156%
16,COc1ccc(C2CC(c3ccccc3)Nc3nc(NC(=O)c4cccs4)nn32)cc1 (stereo unspecified),inconclusive: 617%
17,Cc1c(/C=N/NC(=O)c2cccnc2)c2ccccc2n1Cc1ccccc1,inconclusive: 600%
18,Cn1cnnc1SCC(=O)Nc1ccc(OCc2ccccc2)cc1,inactive: 0%
19,CCn1c(=O)cc(SCC(=O)NCc2ccc3c(c2)OCO3)c2ccccc21,inconclusive: 158%
20,COc1ccc(-n2c(C)cc(/C=C3/SC(=S)N(C)C3=O)c2C)cc1,inconclusive: 294%
21,O=C(CSc1ncccc1C(=O)O)c1ccccc1,inconclusive: 136%

row,SMILES,activation
1,CC1(C)Cc2cccc(OCC(=O)Nc3cccnc3Cl)c2O1,inactive: -2.86%
2,CCN(CC)C1=CC2=CC(=C(C#N)C#N)CCC2CC1 (stereo unspecified),active: 525%
3,O=C(C(Cc1ccccc1)N1C(=O)C2C3C=CC(C3)C2C1=O)N1CCCCCC1 (stereo unspecified),inconclusive: 61%
4,COC(=O)c1c(NC(=O)c2nn(C)cc2Cl)sc2c1CCCC2,inactive: 3.12%
5,C=CCN(c1ccc(C(=O)NCCc2ccccc2)cc1)S(C)(=O)=O,inactive: 0%
6,CC(C)NS(=O)(=O)c1ccc(CCC(=O)Nc2ccc3c(c2)OCO3)cc1,inconclusive: 479%
7,CC(C)NC(=O)c1ccc(COCC(F)(F)C(F)F)cc1,active: 80%
8,CCN(CC)S(=O)(=O)c1ccc2[nH]cc(C(=O)NCCC3=CCCCC3)c(=O)c2c1,inactive: -7.14%
9,CC(C)OCC(O)CS(=O)Cc1ccccc1 (stereo unspecified),inactive: 0%
10,CC(C)(O)C#Cc1ccc(C(=O)N2CCN(C(=O)c3ccco3)CC2)cc1,inconclusive: 80.6%
11,N#Cc1ccc(Oc2nc(Nc3ccc(F)cc3)nc(N3CCCC3)n2)cc1,inconclusive: 457%
12,CCC(C)NC(=O)C(=O)NCC1CCCN1CC (stereo unspecified),inactive: 0%
13,CCOC(=O)CCCCC(=O)NC(CO)C(=O)NC (stereo unspecified),inactive: 231%
14,CS(=O)(=O)c1ncc(Cl)c(C(=O)Nc2ccc3ccccc3c2)n1,inconclusive: 281% [cytotoxic]
15,O=C(C[n+]1cccc2ccccc21)c1ccccc1,inconclusive: 204%
16,CC(C)(C)c1nc(SCC(=O)Nc2ccc(N3CCOCC3)cc2)c2ccccc2n1,inconclusive: 77.1%
17,CCOC(=O)Cc1csc(NC(=O)c2ccco2)n1,inconclusive: 80.7%
18,O=C1C(Cl)=C(Nc2ccccc2)C(=O)c2ccccc21,inconclusive: 386% [cytotoxic]
19,O=C(Cc1ccc(-n2c(=O)c3ccccc3n(Cc3cccc([N+](=O)[O-])c3)c2=O)cc1)NCC1CCCO1 (stereo unspecified),inactive: -6.45%

# Among those listed so far, these have a COOH group.
row,SMILES,activation
9,O=C(O)Cn1cc2c(n1)CCCC2,inconclusive: 450%
21,O=C(CSc1ncccc1C(=O)O)c1ccccc1,inconclusive: 136%

# Reference: PubChem BioAssay AID1296 (Columbia University Molecular Screening Center, 2008)
